log2 fold change data for 33 targets are collected here from the supplement of paper PMC10849652.

The chains behind the UniProt entries cited, without tags or fusion partners. Where a name states a change or a piece, a line headed by the entry shows the natural chain unless it says otherwise.
UniProt Q2M2I8: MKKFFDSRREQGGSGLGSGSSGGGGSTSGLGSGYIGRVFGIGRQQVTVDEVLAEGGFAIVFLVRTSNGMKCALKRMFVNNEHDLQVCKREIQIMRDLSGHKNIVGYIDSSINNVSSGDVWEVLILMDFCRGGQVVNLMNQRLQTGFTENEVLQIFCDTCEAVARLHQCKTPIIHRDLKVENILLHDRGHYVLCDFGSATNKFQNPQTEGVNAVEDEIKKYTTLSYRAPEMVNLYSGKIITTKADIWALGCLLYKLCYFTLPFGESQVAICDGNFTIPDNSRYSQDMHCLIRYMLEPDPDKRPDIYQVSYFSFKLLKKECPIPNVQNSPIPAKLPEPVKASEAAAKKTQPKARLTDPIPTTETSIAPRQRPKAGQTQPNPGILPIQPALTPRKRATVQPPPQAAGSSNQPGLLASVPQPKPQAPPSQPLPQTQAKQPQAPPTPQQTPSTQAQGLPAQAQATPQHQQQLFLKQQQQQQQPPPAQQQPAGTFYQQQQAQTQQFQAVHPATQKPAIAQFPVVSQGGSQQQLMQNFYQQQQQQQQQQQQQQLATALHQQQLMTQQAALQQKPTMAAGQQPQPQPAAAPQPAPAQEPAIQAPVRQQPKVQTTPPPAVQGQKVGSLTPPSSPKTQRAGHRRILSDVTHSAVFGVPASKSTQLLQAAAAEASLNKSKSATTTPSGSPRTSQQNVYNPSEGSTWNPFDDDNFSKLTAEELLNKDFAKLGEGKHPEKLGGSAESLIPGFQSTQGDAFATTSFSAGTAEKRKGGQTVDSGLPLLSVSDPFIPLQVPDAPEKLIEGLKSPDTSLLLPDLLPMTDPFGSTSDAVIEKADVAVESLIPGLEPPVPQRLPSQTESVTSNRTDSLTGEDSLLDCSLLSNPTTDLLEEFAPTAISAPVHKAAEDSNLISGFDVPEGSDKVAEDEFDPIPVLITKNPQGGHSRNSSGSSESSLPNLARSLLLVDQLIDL
UniProt P24666: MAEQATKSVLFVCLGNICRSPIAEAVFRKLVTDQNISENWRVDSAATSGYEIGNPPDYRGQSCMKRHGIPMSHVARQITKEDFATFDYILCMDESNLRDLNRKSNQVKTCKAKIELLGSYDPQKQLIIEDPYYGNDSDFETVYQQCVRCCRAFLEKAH
UniProt Q53FZ2: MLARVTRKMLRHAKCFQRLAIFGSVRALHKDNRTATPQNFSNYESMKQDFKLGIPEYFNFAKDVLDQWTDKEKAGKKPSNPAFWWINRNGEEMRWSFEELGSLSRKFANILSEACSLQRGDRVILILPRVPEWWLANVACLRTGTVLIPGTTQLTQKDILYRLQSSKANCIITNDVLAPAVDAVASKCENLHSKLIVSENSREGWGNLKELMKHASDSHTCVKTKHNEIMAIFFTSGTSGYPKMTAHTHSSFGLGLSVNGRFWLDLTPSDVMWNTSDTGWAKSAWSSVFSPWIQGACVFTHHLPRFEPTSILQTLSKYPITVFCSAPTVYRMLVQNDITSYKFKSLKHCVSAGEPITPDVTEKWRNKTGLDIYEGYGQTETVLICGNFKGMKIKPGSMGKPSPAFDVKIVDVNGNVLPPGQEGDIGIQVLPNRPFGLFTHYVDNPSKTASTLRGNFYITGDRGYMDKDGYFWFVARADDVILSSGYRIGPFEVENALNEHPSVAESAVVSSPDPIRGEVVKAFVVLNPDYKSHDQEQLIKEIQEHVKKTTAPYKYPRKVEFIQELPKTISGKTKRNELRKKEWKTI
UniProt Q96GS6: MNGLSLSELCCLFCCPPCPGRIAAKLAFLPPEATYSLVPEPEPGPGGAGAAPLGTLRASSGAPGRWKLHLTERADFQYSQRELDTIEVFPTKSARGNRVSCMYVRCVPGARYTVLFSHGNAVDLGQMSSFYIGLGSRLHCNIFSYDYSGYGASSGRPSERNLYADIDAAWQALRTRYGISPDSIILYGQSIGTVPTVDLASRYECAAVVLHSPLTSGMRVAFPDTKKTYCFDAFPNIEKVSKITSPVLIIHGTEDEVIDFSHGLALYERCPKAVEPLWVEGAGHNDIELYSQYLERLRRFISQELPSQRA
UniProt O15440: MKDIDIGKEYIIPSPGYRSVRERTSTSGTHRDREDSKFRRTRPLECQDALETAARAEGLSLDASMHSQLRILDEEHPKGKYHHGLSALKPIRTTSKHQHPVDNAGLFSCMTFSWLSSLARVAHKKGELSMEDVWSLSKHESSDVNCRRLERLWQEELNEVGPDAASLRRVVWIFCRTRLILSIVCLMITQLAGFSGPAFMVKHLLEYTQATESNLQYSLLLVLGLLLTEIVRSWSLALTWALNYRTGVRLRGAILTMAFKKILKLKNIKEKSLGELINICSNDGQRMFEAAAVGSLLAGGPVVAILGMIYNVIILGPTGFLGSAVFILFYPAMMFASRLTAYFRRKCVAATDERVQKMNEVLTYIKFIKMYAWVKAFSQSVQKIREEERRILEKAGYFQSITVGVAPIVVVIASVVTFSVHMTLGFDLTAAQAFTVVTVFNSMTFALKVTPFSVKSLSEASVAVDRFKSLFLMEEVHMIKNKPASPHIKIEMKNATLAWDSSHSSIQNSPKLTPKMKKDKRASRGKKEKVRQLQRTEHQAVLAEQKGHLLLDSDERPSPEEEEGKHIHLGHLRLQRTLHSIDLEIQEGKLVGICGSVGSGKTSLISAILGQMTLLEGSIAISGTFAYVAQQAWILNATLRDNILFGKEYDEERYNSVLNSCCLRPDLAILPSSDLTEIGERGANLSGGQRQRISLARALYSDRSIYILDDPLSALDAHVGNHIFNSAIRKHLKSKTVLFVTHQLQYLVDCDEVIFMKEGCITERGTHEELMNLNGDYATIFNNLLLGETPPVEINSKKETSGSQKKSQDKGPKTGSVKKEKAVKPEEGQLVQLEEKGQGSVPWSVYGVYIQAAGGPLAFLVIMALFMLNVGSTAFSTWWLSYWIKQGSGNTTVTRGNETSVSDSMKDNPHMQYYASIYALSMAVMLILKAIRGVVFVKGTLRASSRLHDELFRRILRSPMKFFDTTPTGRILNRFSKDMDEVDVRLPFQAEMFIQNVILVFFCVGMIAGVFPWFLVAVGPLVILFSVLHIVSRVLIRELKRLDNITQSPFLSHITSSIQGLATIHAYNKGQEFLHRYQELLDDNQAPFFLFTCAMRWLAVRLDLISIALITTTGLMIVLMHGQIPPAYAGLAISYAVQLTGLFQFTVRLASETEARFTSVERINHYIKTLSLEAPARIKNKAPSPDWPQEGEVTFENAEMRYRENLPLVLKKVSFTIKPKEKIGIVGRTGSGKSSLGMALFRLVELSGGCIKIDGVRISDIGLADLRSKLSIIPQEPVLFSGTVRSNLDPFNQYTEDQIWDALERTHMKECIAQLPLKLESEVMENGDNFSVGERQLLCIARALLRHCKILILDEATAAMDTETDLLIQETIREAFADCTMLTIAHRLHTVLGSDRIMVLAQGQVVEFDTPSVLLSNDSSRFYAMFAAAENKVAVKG
UniProt Q6PD74: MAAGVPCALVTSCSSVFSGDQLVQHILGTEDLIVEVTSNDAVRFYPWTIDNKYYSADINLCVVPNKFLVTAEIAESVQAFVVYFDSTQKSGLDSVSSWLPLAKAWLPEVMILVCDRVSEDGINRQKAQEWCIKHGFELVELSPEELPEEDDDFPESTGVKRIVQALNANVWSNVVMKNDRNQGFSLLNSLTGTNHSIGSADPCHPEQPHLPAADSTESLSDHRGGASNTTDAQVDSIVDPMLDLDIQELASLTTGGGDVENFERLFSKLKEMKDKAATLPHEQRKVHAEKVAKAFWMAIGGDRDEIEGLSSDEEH
UniProt Q4G176: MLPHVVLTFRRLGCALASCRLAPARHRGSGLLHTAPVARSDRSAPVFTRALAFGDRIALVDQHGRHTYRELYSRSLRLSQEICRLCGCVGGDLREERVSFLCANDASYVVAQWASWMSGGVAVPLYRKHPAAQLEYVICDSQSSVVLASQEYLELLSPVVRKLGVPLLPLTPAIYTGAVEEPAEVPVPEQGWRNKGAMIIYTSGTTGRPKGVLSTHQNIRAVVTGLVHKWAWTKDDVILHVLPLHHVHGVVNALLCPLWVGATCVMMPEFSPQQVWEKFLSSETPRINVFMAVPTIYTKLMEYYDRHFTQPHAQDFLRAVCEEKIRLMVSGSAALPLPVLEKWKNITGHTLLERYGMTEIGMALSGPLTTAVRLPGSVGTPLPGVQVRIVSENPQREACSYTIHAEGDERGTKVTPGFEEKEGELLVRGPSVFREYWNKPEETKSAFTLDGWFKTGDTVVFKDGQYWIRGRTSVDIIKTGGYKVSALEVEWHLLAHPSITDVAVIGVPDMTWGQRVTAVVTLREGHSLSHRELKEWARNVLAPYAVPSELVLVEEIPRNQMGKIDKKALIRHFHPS
UniProt Q5JTZ9, whole entry, looked up: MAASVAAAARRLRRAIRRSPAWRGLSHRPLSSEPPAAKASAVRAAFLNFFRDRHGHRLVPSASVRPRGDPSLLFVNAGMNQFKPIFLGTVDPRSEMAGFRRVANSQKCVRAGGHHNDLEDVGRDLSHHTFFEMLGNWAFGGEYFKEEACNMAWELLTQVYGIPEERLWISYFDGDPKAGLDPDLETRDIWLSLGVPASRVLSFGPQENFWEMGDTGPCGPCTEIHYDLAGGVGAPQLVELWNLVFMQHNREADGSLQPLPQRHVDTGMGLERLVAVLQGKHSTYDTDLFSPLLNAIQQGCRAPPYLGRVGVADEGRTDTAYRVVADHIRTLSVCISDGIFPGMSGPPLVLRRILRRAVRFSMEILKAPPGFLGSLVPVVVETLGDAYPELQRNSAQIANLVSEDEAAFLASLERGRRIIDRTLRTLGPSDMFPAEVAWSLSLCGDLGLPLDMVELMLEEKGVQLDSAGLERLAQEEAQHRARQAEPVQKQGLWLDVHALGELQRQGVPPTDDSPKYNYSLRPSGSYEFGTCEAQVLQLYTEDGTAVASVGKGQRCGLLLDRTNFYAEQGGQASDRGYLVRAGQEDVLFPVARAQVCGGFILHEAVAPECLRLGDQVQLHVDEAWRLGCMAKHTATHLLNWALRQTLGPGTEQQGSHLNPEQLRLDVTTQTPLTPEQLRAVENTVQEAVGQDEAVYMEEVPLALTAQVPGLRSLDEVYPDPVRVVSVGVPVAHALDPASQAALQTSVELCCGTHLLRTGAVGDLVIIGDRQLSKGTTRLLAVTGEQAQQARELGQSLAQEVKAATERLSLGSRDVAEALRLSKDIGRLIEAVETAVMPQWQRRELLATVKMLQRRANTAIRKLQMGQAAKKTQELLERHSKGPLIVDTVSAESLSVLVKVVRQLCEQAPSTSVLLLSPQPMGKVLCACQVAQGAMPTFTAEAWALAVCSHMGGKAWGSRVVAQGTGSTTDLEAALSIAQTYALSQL
UniProt Q9BR61: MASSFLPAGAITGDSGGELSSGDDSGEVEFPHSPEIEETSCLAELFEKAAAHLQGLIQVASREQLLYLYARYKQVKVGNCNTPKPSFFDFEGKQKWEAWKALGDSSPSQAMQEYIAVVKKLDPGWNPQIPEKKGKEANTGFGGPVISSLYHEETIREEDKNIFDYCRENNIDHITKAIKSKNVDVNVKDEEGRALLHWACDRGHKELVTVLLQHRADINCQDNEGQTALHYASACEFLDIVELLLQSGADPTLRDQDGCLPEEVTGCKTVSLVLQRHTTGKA
UniProt P49748: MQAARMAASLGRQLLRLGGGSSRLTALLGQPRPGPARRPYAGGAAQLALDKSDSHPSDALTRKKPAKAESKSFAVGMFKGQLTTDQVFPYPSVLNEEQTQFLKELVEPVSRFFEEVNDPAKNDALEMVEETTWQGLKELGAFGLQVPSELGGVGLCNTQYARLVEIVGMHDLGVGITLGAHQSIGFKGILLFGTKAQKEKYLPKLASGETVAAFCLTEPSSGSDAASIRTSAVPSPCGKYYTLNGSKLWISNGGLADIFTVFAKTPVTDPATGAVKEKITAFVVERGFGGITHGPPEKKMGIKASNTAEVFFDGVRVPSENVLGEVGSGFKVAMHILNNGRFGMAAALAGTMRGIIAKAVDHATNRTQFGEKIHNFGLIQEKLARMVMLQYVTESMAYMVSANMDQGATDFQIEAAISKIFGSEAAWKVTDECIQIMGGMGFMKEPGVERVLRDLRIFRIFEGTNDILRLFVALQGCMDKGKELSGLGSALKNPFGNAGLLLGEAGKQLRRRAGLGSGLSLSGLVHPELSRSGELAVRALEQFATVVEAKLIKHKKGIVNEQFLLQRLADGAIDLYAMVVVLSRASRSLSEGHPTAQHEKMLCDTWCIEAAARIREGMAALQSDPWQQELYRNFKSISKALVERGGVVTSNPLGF
UniProt Q9NX38: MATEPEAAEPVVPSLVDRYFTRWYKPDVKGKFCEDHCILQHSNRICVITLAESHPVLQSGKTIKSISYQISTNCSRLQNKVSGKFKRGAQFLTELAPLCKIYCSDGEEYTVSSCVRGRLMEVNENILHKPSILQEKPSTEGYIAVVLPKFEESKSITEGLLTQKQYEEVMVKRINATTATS

Some of the results follow.

Compound in this assay: CNCc1ccc(-c2[nH]c3cc(F)cc4c3c2CCNC4=O)cc1 [rucaparib]
Kind of assay: log2 fold change, soluble protein after heating vs DMSO (PISA); higher = thermal stabilisation; K562 cells, 10 uM, 30 min; active = over 0.2 and 3.5 SD of the protein, either way, in both replicates (recomputed). The gist of the method: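 Quantification of soluble protein used TMTpro 16plex LC-MS/MS, with channel sums equalised. Samples were the supernatant after 21,000xg for 90 min of pooled aliquots from K562 cells (2×10^6 cells/mL) treated with 10 μM compound for 30 min, heated for 3 min over 48°C-58°C, and extracted in PBS with 0.5% NP-40 at 4°C. Values, from duplicates, describe thermal stability against control samples on a log2 fold-change scale.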
Take AAK1 (UniProt Q2M2I8): the log2 fold change was inactive: -0.013. In the case of ADAMTS5 (UniProt Q9UNA0) it was inactive: -0.04; in that of ABHD13 (UniProt Q7L211), inactive: -0.154.

As to ACSL1 (UniProt P33121), the log2 fold change was inactive: -0.021. Turning to ABHD16A (UniProt O95870), the log2 fold change is inactive: -0.017.

For ACP1 isoform 2 (UniProt P24666), the log2 fold change was inactive: 0.019. As to AAR2 (UniProt Q9Y312), the log2 fold change was inactive: 0.17. In the case of ACSM3 (UniProt Q53FZ2) it was inactive: 0.142.

Regarding AAMP (UniProt Q13685), the log2 fold change is inactive: 0.054. On to ACSL4 (UniProt O60488), for which the log2 fold change was inactive: 0.069. In the case of ABHD17A isoform 2 (UniProt Q96GS6) it was inactive: 0.017; in that of ACAP2 (UniProt Q15057), inactive: -0.016. In the case of ACTR1B (UniProt P42025) it was inactive: -0.037; in that of ACP1 (UniProt P24666), inactive: 0.12; in that of ADAD1 (UniProt Q96M93), inactive: -0.208. In the case of ABCC5 (UniProt O15440) it was inactive: 0.116. Consider ACSL3 (UniProt O95573), for which the log2 fold change was inactive: -0.002.

Take ADAMTS13 (UniProt Q76LX8): the log2 fold change is inactive: -0.021. To AAGAB (UniProt Q6PD74) belongs inactive: 0.055.

For the target ACTBL2 (UniProt Q562R1), the log2 fold change is inactive: -0.711. Take ABCB6 (UniProt Q9NP58): the log2 fold change is inactive: -0.034. To ABCA3 (UniProt Q99758) belongs inactive: 0.11. ACO2 (UniProt Q99798): the log2 fold change is inactive: -0.034.

Take ACADM isoform 2 (UniProt P11310): the log2 fold change was inactive: -0.024. To ACIN1 (UniProt Q9UKV3) belongs inactive: -0.017. For AAK1, A0A096LP25, the log2 fold change was inactive: 0.007. Take ACSF3 (UniProt Q4G176): the log2 fold change was inactive: -0.051. To AARS2 (UniProt Q5JTZ9) belongs inactive: 0.008. Consider ACBD6 (UniProt Q9BR61), for which the log2 fold change is inactive: -0.061. In the case of ACADVL isoform 3 (UniProt P49748) it was inactive: -0.007; in that of ACSL5 isoform 3 (UniProt Q9ULC5), inactive: 0.005. To AARSD1 isoform 3 (UniProt Q9BTE6) belongs inactive: -0.077; to ABITRAM (UniProt Q9NX38), inactive: -0.041.
